Results: article PMC9268489
No constants are given. Whether binding was seen depends on the method and setting. Binding seen in cells or lysates may run through a third protein. Some results given as binding are weak or reduced against the parent protein; the word gives no strength.

Sequences of proteins named here, by UniProt entry; tags and fusion partners are left off. A change or cut given only in a name is not applied to a line headed by its entry. Residues count along the entry.
UniProt Q8NER1: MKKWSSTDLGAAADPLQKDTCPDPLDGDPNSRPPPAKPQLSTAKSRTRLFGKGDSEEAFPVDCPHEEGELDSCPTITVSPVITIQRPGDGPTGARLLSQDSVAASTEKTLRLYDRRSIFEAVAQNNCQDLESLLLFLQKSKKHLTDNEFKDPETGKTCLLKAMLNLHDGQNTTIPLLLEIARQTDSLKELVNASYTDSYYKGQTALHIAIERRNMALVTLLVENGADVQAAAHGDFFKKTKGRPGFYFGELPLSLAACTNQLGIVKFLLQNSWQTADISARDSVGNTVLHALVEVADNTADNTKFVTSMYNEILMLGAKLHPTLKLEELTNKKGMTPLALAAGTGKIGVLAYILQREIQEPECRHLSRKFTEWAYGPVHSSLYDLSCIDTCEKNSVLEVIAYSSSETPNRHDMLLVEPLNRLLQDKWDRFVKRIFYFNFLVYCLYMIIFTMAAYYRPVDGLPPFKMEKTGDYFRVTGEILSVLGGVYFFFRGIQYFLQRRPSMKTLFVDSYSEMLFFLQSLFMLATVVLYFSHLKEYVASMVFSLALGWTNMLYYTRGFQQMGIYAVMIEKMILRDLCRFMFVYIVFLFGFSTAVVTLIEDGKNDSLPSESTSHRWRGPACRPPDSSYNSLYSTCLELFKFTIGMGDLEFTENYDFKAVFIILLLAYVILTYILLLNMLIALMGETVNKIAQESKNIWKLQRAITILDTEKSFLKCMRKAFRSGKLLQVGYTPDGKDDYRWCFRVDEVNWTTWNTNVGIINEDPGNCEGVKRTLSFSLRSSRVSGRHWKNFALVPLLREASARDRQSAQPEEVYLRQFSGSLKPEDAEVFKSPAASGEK
UniProt Q704Y3: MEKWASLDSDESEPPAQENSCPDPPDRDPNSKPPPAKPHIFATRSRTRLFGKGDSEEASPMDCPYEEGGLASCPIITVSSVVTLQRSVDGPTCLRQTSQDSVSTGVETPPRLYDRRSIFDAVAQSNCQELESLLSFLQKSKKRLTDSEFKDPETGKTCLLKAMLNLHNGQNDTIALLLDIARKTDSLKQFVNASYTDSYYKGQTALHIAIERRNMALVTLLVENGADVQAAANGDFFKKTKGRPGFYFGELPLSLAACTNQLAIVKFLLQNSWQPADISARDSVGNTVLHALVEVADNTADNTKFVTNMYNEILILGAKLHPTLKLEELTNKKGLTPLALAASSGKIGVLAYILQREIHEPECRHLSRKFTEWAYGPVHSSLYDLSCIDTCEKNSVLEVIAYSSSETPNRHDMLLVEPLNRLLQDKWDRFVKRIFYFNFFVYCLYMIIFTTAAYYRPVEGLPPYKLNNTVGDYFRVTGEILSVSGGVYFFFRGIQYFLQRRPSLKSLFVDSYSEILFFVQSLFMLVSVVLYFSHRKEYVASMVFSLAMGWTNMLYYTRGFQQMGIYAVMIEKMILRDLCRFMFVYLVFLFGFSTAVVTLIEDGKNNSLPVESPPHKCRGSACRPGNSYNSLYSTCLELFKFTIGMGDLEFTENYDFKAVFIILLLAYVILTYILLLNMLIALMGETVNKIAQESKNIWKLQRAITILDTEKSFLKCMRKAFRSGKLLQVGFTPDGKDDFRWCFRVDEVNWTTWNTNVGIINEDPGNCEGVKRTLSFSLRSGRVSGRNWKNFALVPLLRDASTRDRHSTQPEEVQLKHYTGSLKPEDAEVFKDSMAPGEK
UniProt Q8R0I0, residues 18-805: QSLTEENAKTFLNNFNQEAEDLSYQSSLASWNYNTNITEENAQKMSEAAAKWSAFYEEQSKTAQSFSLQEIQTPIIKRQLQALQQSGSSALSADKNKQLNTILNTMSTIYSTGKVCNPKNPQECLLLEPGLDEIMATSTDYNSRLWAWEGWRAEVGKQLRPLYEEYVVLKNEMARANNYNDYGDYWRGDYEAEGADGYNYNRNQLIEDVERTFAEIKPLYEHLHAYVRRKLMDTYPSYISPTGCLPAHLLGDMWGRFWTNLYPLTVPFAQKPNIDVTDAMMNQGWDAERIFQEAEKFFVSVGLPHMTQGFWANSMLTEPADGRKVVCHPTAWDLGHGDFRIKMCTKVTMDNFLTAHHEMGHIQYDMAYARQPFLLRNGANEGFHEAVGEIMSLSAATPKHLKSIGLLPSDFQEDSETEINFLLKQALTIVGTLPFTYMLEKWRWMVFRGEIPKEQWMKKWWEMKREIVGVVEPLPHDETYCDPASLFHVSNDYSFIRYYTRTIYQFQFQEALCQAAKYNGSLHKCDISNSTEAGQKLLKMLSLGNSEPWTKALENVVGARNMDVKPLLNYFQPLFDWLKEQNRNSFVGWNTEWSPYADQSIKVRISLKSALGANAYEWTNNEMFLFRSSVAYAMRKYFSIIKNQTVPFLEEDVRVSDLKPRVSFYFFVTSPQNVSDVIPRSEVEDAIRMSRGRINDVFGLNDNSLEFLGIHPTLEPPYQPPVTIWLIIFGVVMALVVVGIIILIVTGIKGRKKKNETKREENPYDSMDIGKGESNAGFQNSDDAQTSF

T1: G-protein-coupled estrogen receptor (GPER1), mouse gastric smooth muscle (mouse (endogenous in gastric smooth muscle)) (UniProt Q8BMP4)
T1 sequence: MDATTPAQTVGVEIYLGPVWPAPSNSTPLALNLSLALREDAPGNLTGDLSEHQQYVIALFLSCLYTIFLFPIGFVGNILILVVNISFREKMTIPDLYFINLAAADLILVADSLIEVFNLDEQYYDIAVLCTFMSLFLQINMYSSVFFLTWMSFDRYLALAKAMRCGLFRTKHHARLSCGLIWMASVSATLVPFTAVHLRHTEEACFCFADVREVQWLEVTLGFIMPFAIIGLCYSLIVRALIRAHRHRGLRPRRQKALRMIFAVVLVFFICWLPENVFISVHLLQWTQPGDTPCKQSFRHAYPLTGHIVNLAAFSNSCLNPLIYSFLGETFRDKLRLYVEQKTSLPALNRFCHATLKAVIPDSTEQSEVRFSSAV


Columns and labels:
[1] = target: T1, G-protein-coupled estrogen receptor (GPER1), mouse gastric smooth muscle (mouse (endogenous in gastric smooth muscle)); assay: co-IP; mouse gastric smooth muscle (MGSM) lysate (Triton X-100-based lysis buffer), GPER1 antibody, protein A/G agarose, immunoblot
[2] = target: G-protein-coupled estrogen receptor (GPER1) (human (endogenous in HBO cells)) (UniProt Q99527); assay: co-IP; HBO cell lysate (Triton X-100-based lysis buffer, protease and phosphatase inhibitors), 100 µg protein precleared with protein A/G agarose, overnight with antibody to ACE2, T1R3, TRPV1 or GPER1, protein A/G agarose, four washes in lysis buffer, immunoblot
[3] = target: transient receptor potential cation channel subfamily V member 1 (TRPV1) (human (endogenous in HBO cells)) (UniProt Q8NER1); assay: co-IP; HBO cells, TRPV1 antibody as precipitating antibody, blot for δ-ENaC; IgG instead of TRPV1 antibody as control; data not shown

binding [1] | binding [2] | binding [3] | Molecule
binds | – | – | TRPV1, mouse gastric smooth muscle (from UniProt Q704Y3 1-839)
binds | – | – | ACE2, mouse gastric smooth muscle (from UniProt Q8R0I0 18-805)
– | binds | – | angiotensin (Ang) II type 1 receptor (AT1R) (from UniProt P30556 1-359)
– | binds | – | transient receptor potential cation channel subfamily V member 1 (TRPV1) (from UniProt Q8NER1-1 1-839)
– | binds | binds | epithelial Na+ channel δ-subunit (δ-ENaC) (protein, UniProt P51172 1-802) MRAVLSQKTTPLPRYLWPGHLSGPRRLTWSWCSDHRTPTCRELGSPHPTPCTGPARGWPRRGGGPCGFTSAGHVLCGYPLCLLSGPIQGCGTGLGDSSMAFLSRTSPVAAASFQSRQEARGSILLQSCQLPPQWLSTEAWTGEWKQPHGGALTSRSPGPVAPQRPCHLKGWQHRPTQHNAACKQGQAAAQTPPRPGPPSAPPPPPKEGHQEGLVELPASFRELLTFFCTNATIHGAIRLVCSRGNRLKTTSWGLLSLGALVALCWQLGLLFERHWHRPVLMAVSVHSERKLLPLVTLCDGNPRRPSPVLRHLELLDEFARENIDSLYNVNLSKGRAALSATVPRHEPPFHLDREIRLQRLSHSGSRVRVGFRLCNSTGGDCFYRGYTSGVAAVQDWYHFHYVDILALLPAAWEDSHGSQDGHFVLSCSYDGLDCQARQFRTFHHPTYGSCYTVDGVWTAQRPGITHGVGLVLRVEQQPHLPLLSTLAGIRVMVHGRNHTPFLGHHSFSVRPGTEATISIREDEVHRLGSPYGHCTAGGEGVEVELLHNTSYTRQACLVSCFQQLMVETCSCGYYLHPLPAGAEYCSSARHPAWGHCFYRLYQDLETHRLPCTSRCPRPCRESAFKLSTGTSRWPSAKSAGWTLATLGEQGLPHQSHRQRSSLAKINIVYQELNYRSVEEAPVYSVPQLLSAMGSLCSLWFGASVLSLLELLELLLDASALTLVLGGRRLRRAWFSWPRASPASGASSIKPEASQMPPPAGGTSDDPEPSGPHLPRVMLPGVLAGVSAEESWAGPQPLETLDT
